From the supplement of paper PMC12067093, “Discovery and optimisation of a covalent ligand for TRIM25 and its application to targeted protein ubiquitination” (Chemical Science, 2025)
Some of the results follow.

Chains of the proteins cited; added tags and fusions are not shown. Lines headed by an entry give the natural chain unless they say otherwise; changes in a name come on top.
UniProt O15226: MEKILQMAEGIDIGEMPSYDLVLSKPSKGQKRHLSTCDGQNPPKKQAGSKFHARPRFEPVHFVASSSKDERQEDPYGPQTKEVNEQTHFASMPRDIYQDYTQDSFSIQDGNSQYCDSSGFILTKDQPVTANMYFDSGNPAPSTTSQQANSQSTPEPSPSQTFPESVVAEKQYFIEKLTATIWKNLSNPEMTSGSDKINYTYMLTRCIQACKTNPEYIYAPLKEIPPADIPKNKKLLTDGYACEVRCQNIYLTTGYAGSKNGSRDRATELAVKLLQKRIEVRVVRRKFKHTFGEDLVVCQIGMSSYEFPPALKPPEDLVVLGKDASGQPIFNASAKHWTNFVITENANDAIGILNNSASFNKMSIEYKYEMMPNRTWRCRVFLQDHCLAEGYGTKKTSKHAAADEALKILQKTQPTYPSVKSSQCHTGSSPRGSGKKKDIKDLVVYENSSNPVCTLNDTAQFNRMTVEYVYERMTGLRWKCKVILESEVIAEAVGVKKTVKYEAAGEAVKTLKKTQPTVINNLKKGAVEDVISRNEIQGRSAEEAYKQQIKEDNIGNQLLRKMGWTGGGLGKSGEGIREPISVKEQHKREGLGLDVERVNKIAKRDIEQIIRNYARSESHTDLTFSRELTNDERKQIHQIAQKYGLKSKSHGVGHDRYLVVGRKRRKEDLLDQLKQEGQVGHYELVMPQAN
UniProt Q9Y2X3: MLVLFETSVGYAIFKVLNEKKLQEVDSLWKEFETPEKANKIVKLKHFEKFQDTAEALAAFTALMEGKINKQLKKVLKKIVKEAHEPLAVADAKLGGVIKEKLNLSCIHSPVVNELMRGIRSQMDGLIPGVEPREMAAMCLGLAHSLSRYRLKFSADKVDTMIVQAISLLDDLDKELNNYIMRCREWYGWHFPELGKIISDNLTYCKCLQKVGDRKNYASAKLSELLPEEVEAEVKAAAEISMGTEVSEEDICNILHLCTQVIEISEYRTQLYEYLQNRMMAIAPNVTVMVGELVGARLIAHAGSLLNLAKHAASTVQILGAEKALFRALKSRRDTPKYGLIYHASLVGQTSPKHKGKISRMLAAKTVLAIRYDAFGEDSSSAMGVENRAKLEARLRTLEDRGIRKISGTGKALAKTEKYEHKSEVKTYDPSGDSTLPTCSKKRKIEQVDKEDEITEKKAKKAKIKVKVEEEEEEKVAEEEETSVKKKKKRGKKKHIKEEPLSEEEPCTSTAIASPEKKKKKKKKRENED
UniProt Q08J23, whole entry, looked up: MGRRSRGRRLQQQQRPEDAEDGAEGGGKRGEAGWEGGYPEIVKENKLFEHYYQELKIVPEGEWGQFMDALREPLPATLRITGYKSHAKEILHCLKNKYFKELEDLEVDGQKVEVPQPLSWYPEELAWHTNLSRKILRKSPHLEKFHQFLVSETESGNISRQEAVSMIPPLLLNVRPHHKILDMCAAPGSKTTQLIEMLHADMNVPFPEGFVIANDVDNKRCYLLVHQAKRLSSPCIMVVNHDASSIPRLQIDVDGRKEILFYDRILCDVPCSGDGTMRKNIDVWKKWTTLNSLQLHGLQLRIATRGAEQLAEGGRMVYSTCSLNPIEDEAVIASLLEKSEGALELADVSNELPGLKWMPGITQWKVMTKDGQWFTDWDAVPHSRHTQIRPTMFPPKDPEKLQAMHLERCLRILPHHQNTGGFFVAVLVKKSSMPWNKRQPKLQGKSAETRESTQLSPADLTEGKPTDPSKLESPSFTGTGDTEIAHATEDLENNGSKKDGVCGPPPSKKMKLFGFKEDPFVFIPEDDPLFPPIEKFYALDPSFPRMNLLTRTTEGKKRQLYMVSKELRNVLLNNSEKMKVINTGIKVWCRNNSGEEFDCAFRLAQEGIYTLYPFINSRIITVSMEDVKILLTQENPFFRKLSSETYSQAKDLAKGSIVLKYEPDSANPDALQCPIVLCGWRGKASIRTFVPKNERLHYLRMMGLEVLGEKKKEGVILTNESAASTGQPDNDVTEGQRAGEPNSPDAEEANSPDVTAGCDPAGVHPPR
UniProt Q92636: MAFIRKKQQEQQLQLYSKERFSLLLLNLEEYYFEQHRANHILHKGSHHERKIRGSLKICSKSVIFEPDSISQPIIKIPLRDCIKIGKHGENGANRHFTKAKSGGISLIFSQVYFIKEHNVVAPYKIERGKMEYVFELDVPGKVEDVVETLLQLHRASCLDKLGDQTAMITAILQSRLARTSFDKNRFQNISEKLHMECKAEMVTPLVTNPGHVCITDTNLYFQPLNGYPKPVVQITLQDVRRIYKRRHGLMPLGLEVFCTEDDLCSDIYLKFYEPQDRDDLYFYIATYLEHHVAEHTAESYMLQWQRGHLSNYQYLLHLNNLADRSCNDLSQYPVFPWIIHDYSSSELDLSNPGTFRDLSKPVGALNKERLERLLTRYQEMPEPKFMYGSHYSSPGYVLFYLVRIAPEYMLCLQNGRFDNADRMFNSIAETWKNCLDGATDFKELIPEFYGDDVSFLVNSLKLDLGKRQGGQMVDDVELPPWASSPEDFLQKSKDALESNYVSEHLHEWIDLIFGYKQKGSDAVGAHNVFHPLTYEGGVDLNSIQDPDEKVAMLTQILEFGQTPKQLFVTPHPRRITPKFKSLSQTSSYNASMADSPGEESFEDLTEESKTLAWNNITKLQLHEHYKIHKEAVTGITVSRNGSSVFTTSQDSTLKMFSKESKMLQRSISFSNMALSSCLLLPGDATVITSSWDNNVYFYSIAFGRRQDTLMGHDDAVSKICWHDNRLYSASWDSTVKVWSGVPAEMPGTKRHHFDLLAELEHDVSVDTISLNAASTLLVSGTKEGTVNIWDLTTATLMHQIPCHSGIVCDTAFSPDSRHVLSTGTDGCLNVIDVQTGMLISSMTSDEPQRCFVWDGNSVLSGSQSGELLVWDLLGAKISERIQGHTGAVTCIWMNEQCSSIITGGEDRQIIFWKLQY
UniProt Q9BYT8, whole entry, looked up: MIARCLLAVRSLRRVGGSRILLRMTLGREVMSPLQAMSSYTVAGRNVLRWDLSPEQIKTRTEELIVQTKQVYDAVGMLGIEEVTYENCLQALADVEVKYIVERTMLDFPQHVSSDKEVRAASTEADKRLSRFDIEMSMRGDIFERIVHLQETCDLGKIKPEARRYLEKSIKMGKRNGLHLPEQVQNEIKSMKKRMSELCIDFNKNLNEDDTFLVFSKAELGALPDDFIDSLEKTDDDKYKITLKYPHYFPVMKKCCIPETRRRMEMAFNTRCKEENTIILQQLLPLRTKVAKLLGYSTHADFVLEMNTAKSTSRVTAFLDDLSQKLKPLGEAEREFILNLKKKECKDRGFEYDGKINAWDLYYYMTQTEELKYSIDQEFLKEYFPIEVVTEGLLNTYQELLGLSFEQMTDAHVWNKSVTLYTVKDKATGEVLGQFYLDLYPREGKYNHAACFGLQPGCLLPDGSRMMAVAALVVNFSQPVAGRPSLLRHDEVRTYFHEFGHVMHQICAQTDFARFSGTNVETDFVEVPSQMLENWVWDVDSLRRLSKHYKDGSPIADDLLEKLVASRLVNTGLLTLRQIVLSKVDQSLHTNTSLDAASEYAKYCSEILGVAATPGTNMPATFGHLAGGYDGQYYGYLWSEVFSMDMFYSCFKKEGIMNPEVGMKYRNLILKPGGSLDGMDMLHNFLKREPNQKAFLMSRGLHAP
UniProt O96028: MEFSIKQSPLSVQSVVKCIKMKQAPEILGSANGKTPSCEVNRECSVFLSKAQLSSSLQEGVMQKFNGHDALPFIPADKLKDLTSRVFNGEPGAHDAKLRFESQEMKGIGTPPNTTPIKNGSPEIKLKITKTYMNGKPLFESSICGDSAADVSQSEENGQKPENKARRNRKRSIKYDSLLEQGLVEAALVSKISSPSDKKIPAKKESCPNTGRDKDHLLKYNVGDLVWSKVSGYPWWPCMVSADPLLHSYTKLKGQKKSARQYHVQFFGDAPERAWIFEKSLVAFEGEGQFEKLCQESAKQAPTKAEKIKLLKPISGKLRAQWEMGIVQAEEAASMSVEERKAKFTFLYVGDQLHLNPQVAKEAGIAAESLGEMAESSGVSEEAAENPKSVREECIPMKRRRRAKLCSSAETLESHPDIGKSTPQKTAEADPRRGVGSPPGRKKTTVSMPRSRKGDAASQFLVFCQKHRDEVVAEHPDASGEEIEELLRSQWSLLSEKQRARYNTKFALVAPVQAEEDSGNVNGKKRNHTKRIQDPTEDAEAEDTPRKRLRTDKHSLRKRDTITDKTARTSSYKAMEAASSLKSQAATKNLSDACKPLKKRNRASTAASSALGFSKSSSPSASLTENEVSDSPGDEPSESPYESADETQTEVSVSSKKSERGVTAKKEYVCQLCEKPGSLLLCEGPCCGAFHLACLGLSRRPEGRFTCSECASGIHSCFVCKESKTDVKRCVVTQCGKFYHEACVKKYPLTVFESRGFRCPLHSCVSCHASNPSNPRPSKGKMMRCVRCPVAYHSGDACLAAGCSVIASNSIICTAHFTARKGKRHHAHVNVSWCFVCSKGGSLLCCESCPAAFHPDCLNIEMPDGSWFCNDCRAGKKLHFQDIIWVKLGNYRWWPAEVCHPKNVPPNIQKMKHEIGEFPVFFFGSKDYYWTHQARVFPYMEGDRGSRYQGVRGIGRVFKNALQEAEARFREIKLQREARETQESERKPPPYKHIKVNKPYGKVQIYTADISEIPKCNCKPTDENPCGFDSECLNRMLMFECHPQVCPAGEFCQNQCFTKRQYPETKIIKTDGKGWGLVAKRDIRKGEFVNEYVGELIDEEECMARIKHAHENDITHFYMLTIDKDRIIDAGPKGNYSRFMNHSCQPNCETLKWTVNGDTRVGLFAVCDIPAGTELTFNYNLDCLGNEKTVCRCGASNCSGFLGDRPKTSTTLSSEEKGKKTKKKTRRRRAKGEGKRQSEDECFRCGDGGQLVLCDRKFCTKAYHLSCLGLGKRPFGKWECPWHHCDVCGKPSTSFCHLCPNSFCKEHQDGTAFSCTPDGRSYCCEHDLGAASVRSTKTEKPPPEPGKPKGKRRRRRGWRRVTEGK
UniProt P46087: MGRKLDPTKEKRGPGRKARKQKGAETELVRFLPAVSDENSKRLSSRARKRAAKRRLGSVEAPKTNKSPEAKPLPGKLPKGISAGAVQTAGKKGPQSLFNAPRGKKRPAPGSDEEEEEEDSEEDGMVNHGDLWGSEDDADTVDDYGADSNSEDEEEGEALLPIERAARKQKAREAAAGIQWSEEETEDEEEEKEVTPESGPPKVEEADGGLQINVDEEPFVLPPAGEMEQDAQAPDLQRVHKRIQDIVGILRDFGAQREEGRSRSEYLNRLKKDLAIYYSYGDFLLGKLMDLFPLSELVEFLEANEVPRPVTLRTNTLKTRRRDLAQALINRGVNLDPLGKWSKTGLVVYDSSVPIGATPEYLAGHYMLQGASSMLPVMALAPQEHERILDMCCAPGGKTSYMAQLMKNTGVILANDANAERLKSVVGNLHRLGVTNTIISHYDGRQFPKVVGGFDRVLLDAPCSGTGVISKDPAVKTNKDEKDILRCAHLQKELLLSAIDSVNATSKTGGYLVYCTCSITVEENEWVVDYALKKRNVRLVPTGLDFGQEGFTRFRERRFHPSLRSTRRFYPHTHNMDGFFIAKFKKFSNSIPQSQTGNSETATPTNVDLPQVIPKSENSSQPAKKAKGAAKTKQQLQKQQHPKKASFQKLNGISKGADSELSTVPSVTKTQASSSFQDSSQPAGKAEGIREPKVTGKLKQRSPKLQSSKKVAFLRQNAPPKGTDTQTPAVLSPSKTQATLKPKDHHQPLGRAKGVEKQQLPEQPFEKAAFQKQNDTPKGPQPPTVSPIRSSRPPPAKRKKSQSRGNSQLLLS
UniProt Q9Y314: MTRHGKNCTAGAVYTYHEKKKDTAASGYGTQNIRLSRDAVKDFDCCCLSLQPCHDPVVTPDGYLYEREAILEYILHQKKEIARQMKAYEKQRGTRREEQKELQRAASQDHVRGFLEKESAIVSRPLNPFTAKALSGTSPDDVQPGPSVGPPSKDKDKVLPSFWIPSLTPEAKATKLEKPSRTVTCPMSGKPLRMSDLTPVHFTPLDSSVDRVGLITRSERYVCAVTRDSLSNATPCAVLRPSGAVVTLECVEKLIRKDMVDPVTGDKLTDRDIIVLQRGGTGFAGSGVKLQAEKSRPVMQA

These targets were tested with CC1Cc2ccccc2N1C(=O)C1CCCN(C1)C(=O)CCl (mixture of isomers) [TRIM25 ligand 11 (diastereomer mixture)] (assay: probe-labelled cysteine peptide fold change vs DMSO (competition) (log2 fold change); higher = less target engagement (more negative = stronger competition)). Conditions: 50 µM; THP-1; incubation time: 4 h.
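Also: competitive chemoproteomic profiling in live THP-1 cells with an iodoacetamide desthiobiotin (IA-DTB) probe, comparing probe-labelled peptide intensities in compound-treated cells against DMSO-treated controls.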

| Target | probe-labelled cysteine peptide fold change |
| --- | --- |
| NKRF_O15226_386_VFLQDHCLAEGYGTKK (UniProt O15226) | -0.153 |
| NOP58_Q9Y2X3_139_EMAAMCLGLAHSLSR (UniProt Q9Y2X3) | -0.0217 |
| NSUN2_Q08J23_235_RLSSPCIMVVNHDASSIPR (UniProt Q08J23) | -0.0595 |
| NOP58_Q9Y2X3_106_LNLSCIHSPVVNELMR (UniProt Q9Y2X3) | 0.12 |
| NSMAF_Q92636_721_ICWHDNR (UniProt Q92636) | 0.0732 |
| NOL6_Q9H6R4_633_LIPHQVVTHLLALHADIPETCVHYVGGPLDALIQGLK (UniProt Q9H6R4) | 0.169 |
| NOTCH2_Q04721_427_GADCTEDVDECAMANSNPCEHAGK (UniProt Q04721) | -0.0126 |
| NSMAF_Q92636_158_ASCLDK (UniProt Q92636) | 0.131 |
| NLN_Q9BYT8_451_YNHAACFGLQPGCLLPDGSR (UniProt Q9BYT8) | 0.181 |
| NSD2_O96028_1198_CGASNCSGFLGDRPK (UniProt O96028) | -0.0116 |
| NLN_Q9BYT8_153_IVHLQETCDLGK (UniProt Q9BYT8) | -0.0681 |
| NOP2_P46087_487_CAHLQK (UniProt P46087) | 0.0465 |
| NOL11_Q9H8H0_368_HSQDPGTHVVSHFVNWETPQGCGLGFQNSEQSR (UniProt Q9H8H0) | -0.152 |
| NOL6_Q9H6R4_256_LHPCPPPDFFRPCR (UniProt Q9H6R4) | 0.0433 |
| NOL6_Q9H6R4_1034_QAVDSPAASFCR (UniProt Q9H6R4) | -0.0969 |
| NOSIP_Q9Y314_185_TVTCPMSGKPLR (UniProt Q9Y314) | -0.237 |

2 records picked at random from the list so far, as already listed:

| Target | probe-labelled cysteine peptide fold change |
| --- | --- |
| NOL11_Q9H8H0_368_HSQDPGTHVVSHFVNWETPQGCGLGFQNSEQSR (UniProt Q9H8H0) | -0.152 |
| NSMAF_Q92636_158_ASCLDK (UniProt Q92636) | 0.131 |
